Some of these results come from one statement about several compounds together. At least one compound was matched to its structure with a doubt left.
Key:
[1] = target: T1, purified soluble type ENPP6 protein (Homo sapiens, UniProt Q6UWR7); test: Inhibition of light-emitting substrate degradation by soluble type ENPP6 protein; assay type: biochemical; details: pH 9.6, 37° C., 2 hours; 1 mM printed for ADP
T1 construct: signal peptide; base No. 1 to 66, mature protein; base No. 67 to 1269; made in house; host or cells: HEK293T (secreted into culture supernatant, His-Trap purified)
T1 sequence (Q6UWR7 23-423): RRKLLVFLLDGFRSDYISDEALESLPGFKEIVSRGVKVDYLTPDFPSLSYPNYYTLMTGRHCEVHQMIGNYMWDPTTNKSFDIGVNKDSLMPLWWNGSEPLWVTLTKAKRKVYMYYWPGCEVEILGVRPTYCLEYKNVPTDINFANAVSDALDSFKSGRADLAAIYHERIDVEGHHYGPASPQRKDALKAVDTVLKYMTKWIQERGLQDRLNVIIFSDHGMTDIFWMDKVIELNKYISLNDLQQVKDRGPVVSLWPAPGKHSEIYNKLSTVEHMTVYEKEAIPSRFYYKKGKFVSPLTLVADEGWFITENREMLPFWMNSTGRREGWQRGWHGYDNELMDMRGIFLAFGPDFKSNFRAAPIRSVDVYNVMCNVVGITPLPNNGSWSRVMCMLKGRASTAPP
Procedure: 0.2 μg of the purified soluble type ENPP6 protein was mixed in 90 μL of assay buffer (20 mM HEPES, 140 mM NaCl, 5 mM KCl, 1 mM CaCl2, 1 mM MgCl2, 10 mM Glucose, pH 9.6), and 10 μL of each of 10 mM pNP-PP and a solution of a test compound was added thereto, and was kept at 37° C. for 2 hours. Then, absorption of light of 405 nm was measured and thereby, the amount of p-nitorphenol was quantitatively determined and thereby the inhibitory activity of […] degradation of each of the test compounds was examined. By using Neurotransmitter Library Plate 10 (Purinergic & adenosines) ver. 2, Bioactive Lipid Library ver. 3 (manufactured by BIOMOL Inc.), and various lysophospholipids as test compounds, the inhibitory activity of pNP-PP degradation was measured and, 80% or more of the inhibitory activity was detected in Glycerophosphorilcholine, and 70% or more of the inhibitory activity in Lysophosphatidylcholine, 1-Methyladenosine, 3-Deazaadenosine, ATP, and ADP(1 mM), and 60% or more of the inhibitory activity in N6-Methyladenosine, N6-Methyl-2′-deoxy-adenosine, S-Adenosyl-L-Homocysteine, and 2-MethylthioATP.

[2] = target: T2, purified soluble type ENPP5 protein (Homo sapiens, UniProt Q9UJA9); test: Inhibition of light-emitting substrate degradation by soluble type ENPP5 protein; assay type: biochemical; details: 1 mM compound; pH 7.5, 37° C., 2 hours
T2 construct: signal peptide; base No. 1 to 66, mature protein; base No. 67 to 1287; made in house; host or cells: HEK293T (secreted into culture supernatant, His-Trap purified)
T2 sequence (Q9UJA9 23-429): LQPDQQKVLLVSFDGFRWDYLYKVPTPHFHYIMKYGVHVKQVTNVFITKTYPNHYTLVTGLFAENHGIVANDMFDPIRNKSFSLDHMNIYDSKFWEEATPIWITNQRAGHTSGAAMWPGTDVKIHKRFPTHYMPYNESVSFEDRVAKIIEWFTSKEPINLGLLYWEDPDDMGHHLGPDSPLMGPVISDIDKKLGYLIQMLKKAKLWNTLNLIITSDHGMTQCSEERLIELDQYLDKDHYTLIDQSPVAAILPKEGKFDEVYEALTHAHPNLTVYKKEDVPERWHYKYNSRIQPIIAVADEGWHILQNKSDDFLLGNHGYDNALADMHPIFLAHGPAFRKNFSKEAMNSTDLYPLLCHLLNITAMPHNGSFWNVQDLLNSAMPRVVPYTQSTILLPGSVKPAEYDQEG
Procedure: 0.2 μg of the purified soluble type ENPP5 protein was mixed in 90 μL of assay buffer (20 mM HEPES, 140 mM NaCl, 5 mM KCl, 10 mM Glucose, pH 7.5), and 10 μL of each of 10 mM pNP-PP and a solution of a test compound was added thereto, and then was kept at 37° C. for 2 hours. Then, absorption of light of 405 nm was measured and thereby, the amount of p-nitorphenol was quantitatively determined and thereby the inhibitory activity of […] pNP-PP degradation of each of the test compound was examined. By using Neurotransmitter Library Plate 10 (Purinergic & adenosines) ver. 2 (manufactured by BIOMOL Inc.) as test compounds, and the inhibitory activity of pNP-TMP degradation of each of 1 mM compounds was measured and, 70% or more of the inhibitory activity was detected in 2-Methyl-ATP, and 80% or more of the inhibitory activity was detected in ADP, UDP, and GDP.

## Nc1ncnc2c1ncn2[C@@H]1O[C@H](COP(=O)(O)OP(=O)(O)O)[C@@H](O)[C@H]1O [ADP]
[1]
  inhibitory activity of pNP-PP degradation: ≥ 70%
[2]
  inhibitory activity of pNP-TMP degradation: ≥ 80%

Source: US8110660B2, “Soluble ENPP4 protein” (Ono Pharmaceutical Co., Ltd., priority 2004, dated 2012)
